# PubChem BioAssay AID1508597 – Cure First | 2020
# Purpose: 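Genes whose silencing sensitises or protects ovarian cancer cells against rucaparib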 (primary screen)
# Cell system: human ovarian carcinoma lines grown from tumours: OCI-P5x (papillary serous) and OCI-C5x (clear cell)
# Reagents: siRNA pool against human genes, 1.25 pmol siRNA per well
# Timing: 72 h or 96 h, depending on the cell culture
# Challenge: rucaparib 20 µM (about IC30) or vehicle, present until read-out
# Rucaparib or vehicle: Rucaparib
# Cell line: OCI-P5x (serous)
# Read-out: 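ATP luminescence measured at 72 or 96 h according to the culture, then normalised and expressed as percent viability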
# Reading the numbers: viability, normalised: higher = more viable cells remaining
# Rule for the call: 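a well counts as a hit if its normalised viability is under 80 percent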
# Calls: active = viability under 80%; inactive = viability 80% or more
# Shown is a random part of the about 2,100 reagents, in one setting of the screen. 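Calls flag viability under 80% in either arm, not effects specific to rucaparib; the reference for percent is not stated.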 Entries without a mark were called inactive. A reagent listed more than once was tested more than once; the source does not tell the runs apart. The record does not give: the 100% reference.
gene knocked down,technical replicate,"viability, normalised (%)"
PER1,1,52.2 (active)
PER1,1,70.4 (active)
PER1,2,48.4 (active)
PER1,3,53.4 (active)
PER1,3,56.9 (active)
SMARCB1,1,62.5 (active)
SMARCB1,2,50.6 (active)
SMARCB1,3,55.7 (active)
POLD3,1,74.4 (active)
POLD3,2,77.8 (active)
POLD3,3,63.7 (active)
MTA1,1,40.1 (active)
MTA1,2,38.2 (active)
MTA1,3,40.2 (active)
NR3C1,1,20.9 (active)
NR3C1,2,27.7 (active)
NR3C1,3,23.4 (active)
CLK1,1,88.4
CLK1,2,87.4
CLK1,3,76.5 (active)
CCNK,1,75.6 (active)
CCNK,2,59 (active)
CCNK,3,58.2 (active)
MYC,1,40.8 (active)
MYC,2,46 (active)
MYC,3,52.8 (active)
NR1H3,1,80.5
NR1H3,2,71.8 (active)
NR1H3,3,80.5
SMARCC1,1,51.1 (active)
SMARCC1,2,60 (active)
SMARCC1,3,54 (active)

In a second layout: entries from further up
gene knocked down	technical replicate	viability, normalised (%)
CCNK	2	59 (active)
CCNK	3	58.2 (active)
MYC	1	40.8 (active)
MYC	2	46 (active)
MYC	3	52.8 (active)
NR1H3	1	80.5
NR1H3	2	71.8 (active)
NR1H3	3	80.5

More entries follow:
gene knocked down,technical replicate,"viability, normalised (%)"
TDP1,1,108
TDP1,1,55.9 (active)
TDP1,2,130
TDP1,2,59.6 (active)
TDP1,3,131
TDP1,3,50.3 (active)
HIRIP3,1,68.2 (active)
HIRIP3,2,58.1 (active)
HIRIP3,3,54.5 (active)
SETDB1,1,39.7 (active)
SETDB1,2,51.5 (active)
SETDB1,3,53.9 (active)
PIKFYVE,1,130
PIKFYVE,2,106
PIKFYVE,3,95.7
BBS7,1,71.2 (active)
BBS7,2,80
BBS7,3,76.9 (active)
BRSK2,1,67.1 (active)
BRSK2,2,79 (active)
BRSK2,3,55.4 (active)
EZH2,1,79.1 (active)
EZH2,2,68.1 (active)
EZH2,3,68.7 (active)
NEIL1,1,82.2
NEIL1,1,121
NEIL1,2,113
NEIL1,2,67.6 (active)
NEIL1,3,107
NEIL1,3,76.8 (active)
